PubChem BioAssay AID1224830 | NIAID | 2016
The whole screen tested about 18,000 reagents; this is an unselected part. About 2,900 of them (16%) were called active. 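Calls are made per well; low scores hint the gene aids the LPS response, high scores that it dampens it.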 Repeated entries: four replicate wells of each siRNA pool.

Assay: 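Host factors that control LPS-induced TNF expression in human macrophages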 (primary screen)
System: human THP-1 monocytic leukaemia cells, TNF dual-luciferase reporter clone, PMA-differentiated to macrophage-like cells
Reagents: siRNA pool against human genes, 50 nM
Time to read-out: LPS for 4 h, given about 3 days after siRNA transfection
Treatment: bacterial LPS (TLR4 ligand), 10 ng/ml
Measured: 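Ratio of firefly to renilla light, scaled to the plate median and expressed as a robust z-score per replicate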
Scale: TNF reporter robust z-score: higher = stronger TNF reporter response to LPS
Call rule: 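Each well counts as active if its z-score is over 2.8 or under -1.5; controls are left without a call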

no.	gene	TNF reporter robust z-score	Call
1	STAB1	-0.22	inactive
2	STAB1	-0.52	inactive
3	STAB1	0.17	inactive
4	STAB1	-0.76	inactive
5	COL26A1	0.06	inactive
6	COL26A1	0.33	inactive
7	COL26A1	0.18	inactive
8	COL26A1	0.69	inactive
9	NCAM2	1	inactive
10	NCAM2	-0.84	inactive
11	NCAM2	0.32	inactive
12	NCAM2	0.93	inactive
13	L3MBTL3	1.53	inactive
14	L3MBTL3	0.83	inactive
15	L3MBTL3	-1.29	inactive
16	L3MBTL3	0.49	inactive
17	ENTREP3	-0.08	inactive
18	ENTREP3	0.25	inactive
19	ENTREP3	0.08	inactive
20	ENTREP3	0.07	inactive
21	LRFN3	-0.72	inactive
22	LRFN3	-0.87	inactive
23	LRFN3	-0.82	inactive
24	LRFN3	-0.43	inactive
25	SLC35H1	0.66	inactive
26	SLC35H1	1.16	inactive
27	SLC35H1	-0.04	inactive
28	SLC35H1	0.02	inactive
29	MAP3K12	0	inactive
30	MAP3K12	0.99	inactive
31	MAP3K12	0.36	inactive
32	MAST4	0.4	inactive
33	MAST4	0.83	inactive
34	MAST4	0.44	inactive
35	MAST4	0.48	inactive
36	NDUFB7	-0.7	inactive
37	NDUFB7	0.45	inactive
38	NDUFB7	0.43	inactive
39	NDUFB7	1.22	inactive
40	OBI1	-1.05	inactive
41	OBI1	1.33	inactive
42	OBI1	0.47	inactive
43	OBI1	2.11	inactive
44	ZNF160	0.12	inactive
45	ZNF160	0.14	inactive
46	ZNF160	0.68	inactive
47	ZNF160	-0.95	inactive
48	MAB21L1	-1.66	active
49	MAB21L1	0.22	inactive
50	MAB21L1	0.09	inactive
51	MAB21L1	0.38	inactive
52	ICOSLG	0.05	inactive
53	ICOSLG	-1.27	inactive
54	ICOSLG	0.1	inactive
55	ICOSLG	-1	inactive
56	SECISBP2L		inactive
57	SECISBP2L	0.46	inactive
58	SECISBP2L	0.29	inactive
59	SECISBP2L	-0.02	inactive
60	OAZ3	-1.34	inactive
61	OAZ3	-1.53	active
62	OAZ3	-2.05	active
63	OAZ3	-0.95	inactive
64	TSLIG3A	-0.52	inactive
65	TSLIG3A	0.39	inactive
66	TSLIG3A	0.12	inactive
67	TSLIG3A	0.2	inactive
68	ADAR	0.82	inactive
69	ADAR	-0.31	inactive
70	ADAR	1.52	inactive
71	ADAR	-0.08	inactive
72	AKAP6	2.74	inactive
73	AKAP6	2.36	inactive
74	AKAP6	2.08	inactive
75	AKAP6	4.09	active
76	YY1AP1	0.79	inactive
77	YY1AP1	1.34	inactive
78	YY1AP1	0.88	inactive
79	YY1AP1	0.83	inactive
80	PCBP3	-0.41	inactive
81	PCBP3	-0.36	inactive
82	PCBP3	0.05	inactive
83	PCBP3	-1.33	inactive
84	NME6	-0.41	inactive
85	NME6	-0.93	inactive
86	NME6	-0.14	inactive
87	NME6	0.02	inactive
88	GLB1L	-0.12	inactive
89	GLB1L	0.19	inactive
90	GLB1L	1.57	inactive
91	GLB1L	0.24	inactive
92	CATSPERG	-1.01	inactive
93	CATSPERG	-0.92	inactive
94	CATSPERG	-0.75	inactive
95	CATSPERG	-0.94	inactive
96	EFHC1	-0.81	inactive
97	EFHC1	-1.1	inactive
98	EFHC1	-1.02	inactive
99	EFHC1	-0.08	inactive
100	UXT	0.98	inactive
101	UXT	1.01	inactive
102	UXT	-0.15	inactive
103	UXT	2.33	inactive
104	HNF4G		inactive
105	HNF4G	0.83	inactive
106	HNF4G	1.47	inactive
107	HNF4G	1.51	inactive
108	HNF4G	3.88	active
109	SMIM19	-0.52	inactive
110	SMIM19	0.77	inactive
111	SMIM19	-0.34	inactive
112	SMIM19	0.03	inactive
113	NTMT1	1.6	inactive
114	NTMT1	1.36	inactive
115	NTMT1	2.2	inactive
116	NTMT1	2.49	inactive
117	ESS2	-0.41	inactive
118	ESS2	-0.13	inactive
119	ESS2	-0.07	inactive
120	ESS2	0.21	inactive
121	SYBU	0.85	inactive
122	SYBU	0.75	inactive
123	SYBU	1.15	inactive
124	SYBU	-1.13	inactive
125	ELAVL2	-0.23	inactive
126	ELAVL2	0.63	inactive
127	ELAVL2	3.35	active
128	ELAVL2	0.94	inactive
129	HOXD8	-0.25	inactive
130	HOXD8	-0.08	inactive
131	HOXD8	-0.55	inactive
132	HOXD8	1.42	inactive
133	RASGEF1A	1.68	inactive
134	RASGEF1A	5.02	active
135	RASGEF1A	3.29	active
136	RASGEF1A	1.01	inactive
137	PCNT	0.7	inactive
138	PCNT	0.49	inactive
139	PCNT	-0.09	inactive
140	PCNT	-1.07	inactive

Targets above whose gene name starts with Z or z (4):
gene	TNF reporter robust z-score	Call
ZNF160	0.12	inactive
ZNF160	0.14	inactive
ZNF160	0.68	inactive
ZNF160	-0.95	inactive
